In the supplement of paper PMC10470496:
Where a name gives a salt, the structure may show the parent alone. The list shows a part of the results. Many values rest on one well or one pass, so single values are uncertain.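 The three strains are clinical Candida auris isolates from the CDC resistance isolate bank, from clades III, IV and I, grown in RPMI-1640 at 35°C. Growth is background-corrected OD600 relative to vehicle-only wells on the same plate; a hit meant over 50% inhibition in at least two strains plus a plate-corrected B-score above 0.1.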

Each molecule was assayed on C. auris AR-386 (assay: growth relative to vehicle control (OD600 ratio) (fraction); higher = less inhibition). Conditions: 10 µM; 24 h.

SMILES	growth
C=C1CC[C@H](O)C/C1=C/C=C1\CCC[C@]2(C)[C@@H]([C@H](C)CCCC(C)C)CC[C@@H]12 [Vitamin D3]	0.83
CCOc1cc(N)c(Cl)cc1C(=O)NCC1CN(Cc2ccc(F)cc2)CCO1 (stereo unspecified) [Mosapride Citrate]	0.66
CC(CN(C)C)CN1c2ccccc2CCc2ccccc21 (stereo unspecified) [Trimipramine Maleate]	1
Cc1ccc(-c2cc(C(F)(F)F)nn2-c2ccc(S(N)(=O)=O)cc2)cc1 [Celecoxib]	0.81
Cc1cc(C2CCCCC2)n(O)c(=O)c1 [Ciclopirox ethanolamine]	0.01
Cc1cnc(NC(=O)C2=C(O)c3ccccc3S(=O)(=O)N2C)s1 [Meloxicam]	0.95
O=c1oc2c(O)c(O)cc3c(=O)oc4c(O)c(O)cc1c4c23 [Ellagic acid]	1.11
Nc1c(CC(=O)O)cccc1C(=O)c1ccc(Br)cc1 [Bromfenac Sodium]	0.86
O=C(O)c1cc(-c2ccccc2)nc2ccccc12 [Cinchophen]	1
CC1(C)S[C@@H]2[C@H](NC(=O)COc3ccccc3)C(=O)N2[C@H]1C(=O)O [Penicillin V potassium salt]	0.78
CN(C)C(=O)COC(=O)Cc1ccc(OC(=O)c2ccc(NC(=N)N)cc2)cc1 [Camostat Mesilate]	0.96
CCOC(=O)c1ccc(N)cc1 [Benzocaine]	0.59
COc1ccc2[nH]c([S+]([O-])Cc3ncc(C)c(OC)c3C)nc2c1 (stereo unspecified) [Omeprazole]	1.24
Nc1nc(NC2CC2)c2ncn([C@H]3C=C[C@@H](CO)C3)c2n1 [Abacavir sulfate]	0.67
CCc1ccc(Cc2ccc3c(c2)[C@]2(OC3)O[C@H](CO)[C@@H](O)[C@H](O)[C@H]2O)cc1 [Tofogliflozin(CSG 452)]	0.99
CC(=O)OCC(=O)NCCCOc1cccc(CN2CCCCC2)c1 [Roxatidine Acetate HCl]	0.68
CC(C)C[C@H](NC(=O)[C@@H](NC(=O)c1cccc(-c2ccccc2)n1)[C@@H](C)O)B(O)O	1.2
NC(=O)c1ncn([C@@H]2O[C@H](CO)[C@@H](O)[C@H]2O)c1O [Mizoribine]	1.22
CCN(CC)CC(=O)Nc1c(C)cccc1C [Lidocaine hydrochloride]	0.98
C=C1c2cccc(O)c2C(=O)C2=C(O)[C@]3(O)C(=O)C(C(N)=O)=C(O)[C@@H](N(C)C)[C@@H]3[C@@H](O)[C@H]12 [Methacycline HCl]	1.29
CCCCN1CCCC[C@H]1C(=O)Nc1c(C)cccc1C [Levobupivacaine HCl]	1.22
CCC[C@H](NC(=O)[C@@H]1[C@H]2CCC[C@H]2CN1C(=O)[C@@H](NC(=O)[C@@H](NC(=O)c1cnccn1)C1CCCCC1)C(C)(C)C)C(=O)C(=O)NC1CC1 [Telaprevir (VX-950)]	1.11
C[C@H]1COc2c(N3CCN(C)CC3)c(F)cc3c(=O)c(C(=O)O)cn1c23 [Levofloxacin]	1.15
CC(C)CN(C[C@@H](O)[C@H](Cc1ccccc1)NC(=O)O[C@H]1CO[C@H]2OCC[C@H]21)S(=O)(=O)c1ccc(N)cc1 [Darunavir Ethanolate]	0.86
Oc1ccc(O)cc1 [Hydroquinone]	0.9
CCCCCCCCCCCCCCCC[N+](C)(C)C [Cetrimonium Bromide (CTAB)]	0.18

2 entries drawn at random from those above, as already listed:
SMILES	growth
CCCCN1CCCC[C@H]1C(=O)Nc1c(C)cccc1C [Levobupivacaine HCl]	1.22
CC(C)C[C@H](NC(=O)[C@@H](NC(=O)c1cccc(-c2ccccc2)n1)[C@@H](C)O)B(O)O	1.2
